We go through four molecules from US12729225B2, “Non-canonical SWI/SNF complex and uses thereof” (Dana-Farber Cancer Institute, Inc., priority 2018, dated 2026).

In the series the test system is mSWI/SNF complexes. As to the kind of experiment: mSWI/SNF complex purification with HA-tagged baits and mass spectrometry (peptide counts). Further details: species or system human.
[1] abbreviates: 293_HA-BRD7: HA-BRD7 bait purification, total peptide count per co-purified protein.
The mark [2] stands for this setting: 293_HA-BRD7: HA-BRD7 bait purification, unique peptide count per co-purified protein.
The mark [3] stands for this setting: 293_HA-DPF2 purification, total peptides.
Where [4] appears, read: 293_HA-DPF2 purification, unique peptides.

B1: LUC7L3 (protein, UniProt O95232 1-432, looked up)
Luc7-like protein 3: MISAAQLLDELMGRDRNLAPDEKRSNVRWDHESVCKYYLCGFCPAELFTNTRSDLGPCEKIHDENLRKQYEKSSRFMKVGYERDFLRYLQSLLAEVERRIRRGHARLALSQNQQSSGAAGPTGKNEEKIQVLTDKIDVLLQQIEELGSEGKVEEAQGMMKLVEQLKEERELLRSTTSTIESFAAQEKQMEVCEVCGAFLIVGDAQSRVDDHLMGKQHMGYAKIKATVEELKEKLRKRTEEPDRDERLKKEKQEREEREKEREREREERERKRRREEEEREKERARDRERRKRSRSRSRHSSRTSDRRCSRSRDHKRSRSRERRRSRSRDRRRSRSHDRSERKHRSRSRDRRRSKSRDRKSYKHRSKSRDREQDRKSKEKEKRGSDDKKSSVKSGSREKQSEDTNTESKESDTKNEVNGTSEDIKSEGDTQSN
The molecule B1 had a Total under setting [1] of 10. The molecule further yielded a Unique under setting [2] of 10.

B2: CAPS2 (protein, UniProt Q9BXY5 1-538, looked up)
Calcyphosin-2: MDLEVKGVAATSRSQIQPFFGRKKPLQQRWTSESWTNQNSCPPVVPRLDLGSLVDSDDEDNFSYIPLSTANLPNSSSTLGWVTPCQTPYTQYHLNKLDQNIIPENLPAPTDKCKLKYQQCKTEIKEGYKQYSQRNAENTKSNVTHKQSPRNKIDEKCVQDEEANTDDLTTLDRKAILQQGYADNSCDKQQRARKLDAEIVAAEKKKQIVAEQVMIDHLSRAVISDPEQNLAIEQKESDHILPDSKMTPLRFRKRTLHETKIRTHSTLTENVLSHKLQFDGRIVSRNGRDACRELIGFFFTHDQSLTIYEYRQFGKNRTNVLPFIQKSIYSHQCGRRKGKQYRLGDFYVGATLTFLSSDHLSLPESIKENTLLKLRITNIDQIALDSLKTASMEQEDDIIIQETNDRLVFKAIQDVLKEKLHKRGVRILTGLGKYFQQLDKEGNGLLDKADFKQALKVFHLEVSEKDFESAWLILNDNGNGKVDYGEFKRGIIGEMNEYRKSYVRKAFMKLDFNKSGSVPIINIRKCYCAKKHSQVISG
Regarding B2, under setting [3], the Total stood at 2. In addition, under setting [4], the Unique was 1.

B3: SS18L1 (protein)
chain: MSVAFASARPRGKGEVTQQTIQKMLDENHHLIQCILEYQSKGKTAECTQYQQILHRNLVYLATIADSNQNMQSLLPAPPTQNMNLGPGALTQSGSSQGLHSQGSLSDAISTGLPPSSLLQGQIGNGPSHVSMQQTAPNTLPTTSMSISGPGYSHAGPASQGVPMQGQGTIGNYVSRTNINMQSNPVSMMQQQAATSHYSSAQGGSQHYQGQSSIAMMGQGSQGSSMMGQRPMAPYRPSQQGSSQQYLGQEEYYGEQYSHSQGAAEPMGQQYYPDGHGDYAYQQSSYTEQSYDRSFEESTQHYYEGGNSQYSQQQAGYQQGAAQQQTYSQQQYPSQQSYPGQQQGYGSAQGAPSQYPGYQQGQGQQYGSYRAPQTAPSAQQQRPYGYEQGQYGNYQQ
In turn, B3 gave a Total under setting [3] of 3. This molecule came in with a Unique under setting [4] of 2.

B4: STOML2 (protein, UniProt Q9UJZ1 29-356, looked up)
Stomatin-like protein 2, …: SSGLPRNTVVLFVPQQEAWVVERMGRFHRILEPGLNILIPVLDRIRYVQSLKEIVINVPEQSAVTLDNVTLQIDGVLYLRIMDPYKASYGVEDPEYAVTQLAQTTMRSELGKLSLDKVFRERESLNASIVDAINQAADCWGIRCLRYEIKDIHVPPRVKESMQMQVEAERRKRATVLESEGTRESAINVAEGKKQAQILASEAEKAEQINQAAGEASAVLAKAKAKAEAIRILAAALTQHNGDAAASLTVAEQYVSAFSKLAKDSNTILLPSNPGDVTSMVAQAMGVYGALTKAPVPGTPDSLSSGSSRDVQGTDASLDEELDRVKMS
In turn, B4 showed a Total under setting [1] of 11. The same molecule registered a Unique under setting [2] of 10.
